Assay results: the supplement of paper PMC12067093, “Discovery and optimisation of a covalent ligand for TRIM25 and its application to targeted protein ubiquitination” (Chemical Science, 2025)
The other results are listed elsewhere or left out.

Protein sequences, listed by entry. Tags and fused reporters are not part of them. Lines headed by an entry give the natural chain unless they say otherwise; changes in a name come on top.
UniProt P41226: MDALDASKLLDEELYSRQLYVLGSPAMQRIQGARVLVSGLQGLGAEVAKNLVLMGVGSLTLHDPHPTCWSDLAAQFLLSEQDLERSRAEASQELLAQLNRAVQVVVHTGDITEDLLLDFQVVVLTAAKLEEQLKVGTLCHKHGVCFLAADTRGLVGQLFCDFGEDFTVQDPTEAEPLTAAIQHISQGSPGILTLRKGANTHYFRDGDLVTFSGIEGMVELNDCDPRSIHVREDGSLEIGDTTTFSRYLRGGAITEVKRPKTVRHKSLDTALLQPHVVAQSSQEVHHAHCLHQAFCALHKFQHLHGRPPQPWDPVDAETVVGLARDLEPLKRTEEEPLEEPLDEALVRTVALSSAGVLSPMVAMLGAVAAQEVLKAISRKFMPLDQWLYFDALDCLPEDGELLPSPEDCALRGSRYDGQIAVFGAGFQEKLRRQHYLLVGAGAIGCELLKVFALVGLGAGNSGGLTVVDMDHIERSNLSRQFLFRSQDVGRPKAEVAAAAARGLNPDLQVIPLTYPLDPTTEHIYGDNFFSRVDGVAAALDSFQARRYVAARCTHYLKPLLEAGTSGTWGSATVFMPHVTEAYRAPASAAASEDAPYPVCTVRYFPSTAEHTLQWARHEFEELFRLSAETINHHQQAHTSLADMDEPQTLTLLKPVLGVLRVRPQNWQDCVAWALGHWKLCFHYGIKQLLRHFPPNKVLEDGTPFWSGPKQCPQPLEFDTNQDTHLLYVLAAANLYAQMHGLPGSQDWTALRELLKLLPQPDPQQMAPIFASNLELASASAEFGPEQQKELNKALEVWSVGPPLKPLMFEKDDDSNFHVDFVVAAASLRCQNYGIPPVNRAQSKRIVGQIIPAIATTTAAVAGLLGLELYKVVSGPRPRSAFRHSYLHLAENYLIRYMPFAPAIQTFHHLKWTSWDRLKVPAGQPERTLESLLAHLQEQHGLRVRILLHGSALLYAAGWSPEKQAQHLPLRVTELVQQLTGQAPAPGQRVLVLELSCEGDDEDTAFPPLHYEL
UniProt Q05086: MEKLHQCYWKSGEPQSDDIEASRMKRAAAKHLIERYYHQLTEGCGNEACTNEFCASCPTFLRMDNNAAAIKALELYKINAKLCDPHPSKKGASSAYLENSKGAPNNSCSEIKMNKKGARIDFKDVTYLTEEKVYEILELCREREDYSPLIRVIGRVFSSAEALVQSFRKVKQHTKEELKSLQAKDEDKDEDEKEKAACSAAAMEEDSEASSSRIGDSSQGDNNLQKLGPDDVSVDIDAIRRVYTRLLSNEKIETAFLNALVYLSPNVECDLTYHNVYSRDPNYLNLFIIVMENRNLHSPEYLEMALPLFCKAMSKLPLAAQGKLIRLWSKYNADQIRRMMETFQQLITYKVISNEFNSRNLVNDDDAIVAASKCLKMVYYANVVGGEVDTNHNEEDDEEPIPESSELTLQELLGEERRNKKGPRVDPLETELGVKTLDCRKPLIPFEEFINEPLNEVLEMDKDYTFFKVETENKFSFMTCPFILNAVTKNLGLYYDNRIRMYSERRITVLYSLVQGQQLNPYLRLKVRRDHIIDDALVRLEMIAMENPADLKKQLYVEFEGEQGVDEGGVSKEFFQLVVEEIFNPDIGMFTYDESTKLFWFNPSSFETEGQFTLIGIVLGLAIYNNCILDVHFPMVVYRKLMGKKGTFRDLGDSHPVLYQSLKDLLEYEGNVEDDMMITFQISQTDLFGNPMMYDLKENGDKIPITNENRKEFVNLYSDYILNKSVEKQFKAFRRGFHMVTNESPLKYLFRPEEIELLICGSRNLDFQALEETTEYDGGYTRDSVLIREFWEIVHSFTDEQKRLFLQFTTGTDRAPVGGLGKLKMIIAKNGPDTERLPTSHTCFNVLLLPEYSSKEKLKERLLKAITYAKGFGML
UniProt Q9NZ09: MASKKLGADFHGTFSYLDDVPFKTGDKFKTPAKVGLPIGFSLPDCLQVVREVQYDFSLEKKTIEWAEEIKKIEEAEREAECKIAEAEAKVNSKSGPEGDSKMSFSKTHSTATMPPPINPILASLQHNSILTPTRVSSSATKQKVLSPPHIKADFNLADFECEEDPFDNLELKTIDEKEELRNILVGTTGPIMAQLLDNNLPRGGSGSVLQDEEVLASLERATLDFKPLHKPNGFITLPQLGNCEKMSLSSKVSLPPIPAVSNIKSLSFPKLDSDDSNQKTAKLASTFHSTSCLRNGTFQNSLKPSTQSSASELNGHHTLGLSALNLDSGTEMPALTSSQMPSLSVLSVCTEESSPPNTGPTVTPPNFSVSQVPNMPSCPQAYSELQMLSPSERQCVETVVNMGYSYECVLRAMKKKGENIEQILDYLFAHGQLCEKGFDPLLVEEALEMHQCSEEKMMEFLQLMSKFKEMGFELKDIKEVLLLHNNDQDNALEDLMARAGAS
UniProt O43396: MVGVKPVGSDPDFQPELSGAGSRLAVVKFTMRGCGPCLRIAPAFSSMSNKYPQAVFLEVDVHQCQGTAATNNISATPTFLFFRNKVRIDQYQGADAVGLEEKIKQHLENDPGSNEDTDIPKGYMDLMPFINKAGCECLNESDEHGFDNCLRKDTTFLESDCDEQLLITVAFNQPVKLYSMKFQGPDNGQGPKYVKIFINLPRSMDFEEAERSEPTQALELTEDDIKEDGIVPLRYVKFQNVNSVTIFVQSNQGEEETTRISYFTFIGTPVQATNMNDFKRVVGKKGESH
UniProt O15042: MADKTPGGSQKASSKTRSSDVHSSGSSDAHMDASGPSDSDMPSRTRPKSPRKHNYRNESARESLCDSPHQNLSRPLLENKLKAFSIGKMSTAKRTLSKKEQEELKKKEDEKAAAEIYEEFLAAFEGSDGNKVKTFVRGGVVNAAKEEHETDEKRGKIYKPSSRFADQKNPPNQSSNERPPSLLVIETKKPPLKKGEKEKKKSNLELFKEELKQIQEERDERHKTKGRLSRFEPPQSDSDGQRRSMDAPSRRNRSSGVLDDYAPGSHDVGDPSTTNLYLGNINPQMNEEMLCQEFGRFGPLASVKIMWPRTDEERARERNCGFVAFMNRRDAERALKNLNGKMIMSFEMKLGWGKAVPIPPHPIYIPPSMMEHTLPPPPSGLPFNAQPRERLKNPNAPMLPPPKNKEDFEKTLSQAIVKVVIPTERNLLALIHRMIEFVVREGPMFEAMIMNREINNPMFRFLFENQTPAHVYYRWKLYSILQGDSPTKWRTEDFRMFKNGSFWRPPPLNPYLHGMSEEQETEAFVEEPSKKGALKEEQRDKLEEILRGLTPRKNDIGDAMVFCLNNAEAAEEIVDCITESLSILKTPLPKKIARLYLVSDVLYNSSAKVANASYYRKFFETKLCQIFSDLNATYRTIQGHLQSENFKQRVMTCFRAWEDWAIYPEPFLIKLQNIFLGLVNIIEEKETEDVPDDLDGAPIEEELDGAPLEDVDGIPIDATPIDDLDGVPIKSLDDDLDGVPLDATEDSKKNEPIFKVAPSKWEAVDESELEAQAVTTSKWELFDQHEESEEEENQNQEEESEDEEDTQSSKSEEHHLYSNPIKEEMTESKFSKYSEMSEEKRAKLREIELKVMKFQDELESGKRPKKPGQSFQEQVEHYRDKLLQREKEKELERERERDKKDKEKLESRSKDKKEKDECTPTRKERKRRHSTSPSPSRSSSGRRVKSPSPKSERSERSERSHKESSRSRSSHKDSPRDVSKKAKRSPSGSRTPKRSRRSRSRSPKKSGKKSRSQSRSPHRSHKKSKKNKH
UniProt Q969M7: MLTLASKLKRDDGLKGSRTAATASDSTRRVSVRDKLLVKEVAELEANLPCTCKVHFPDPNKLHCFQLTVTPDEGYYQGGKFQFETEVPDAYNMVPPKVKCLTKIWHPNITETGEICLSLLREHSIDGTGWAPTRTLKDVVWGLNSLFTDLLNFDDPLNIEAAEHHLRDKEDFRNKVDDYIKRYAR
UniProt Q16222: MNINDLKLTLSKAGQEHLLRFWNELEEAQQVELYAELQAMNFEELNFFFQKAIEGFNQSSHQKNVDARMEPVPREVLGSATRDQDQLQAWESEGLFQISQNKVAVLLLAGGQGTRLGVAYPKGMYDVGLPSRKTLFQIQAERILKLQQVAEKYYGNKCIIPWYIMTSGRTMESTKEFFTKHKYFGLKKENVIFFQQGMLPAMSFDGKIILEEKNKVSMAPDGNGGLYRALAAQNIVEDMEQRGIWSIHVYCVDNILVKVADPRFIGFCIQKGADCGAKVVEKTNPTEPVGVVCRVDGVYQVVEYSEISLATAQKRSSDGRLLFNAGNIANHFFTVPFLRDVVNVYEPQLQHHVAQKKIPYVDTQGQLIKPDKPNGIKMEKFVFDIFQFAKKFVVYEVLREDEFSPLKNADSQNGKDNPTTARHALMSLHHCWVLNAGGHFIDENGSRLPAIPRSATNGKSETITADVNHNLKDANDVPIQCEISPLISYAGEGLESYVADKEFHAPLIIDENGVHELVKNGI
UniProt Q13404: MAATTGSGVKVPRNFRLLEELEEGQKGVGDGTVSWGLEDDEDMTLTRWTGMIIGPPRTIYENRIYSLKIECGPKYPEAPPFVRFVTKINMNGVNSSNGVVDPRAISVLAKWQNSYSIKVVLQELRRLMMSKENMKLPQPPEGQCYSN
UniProt Q712K3: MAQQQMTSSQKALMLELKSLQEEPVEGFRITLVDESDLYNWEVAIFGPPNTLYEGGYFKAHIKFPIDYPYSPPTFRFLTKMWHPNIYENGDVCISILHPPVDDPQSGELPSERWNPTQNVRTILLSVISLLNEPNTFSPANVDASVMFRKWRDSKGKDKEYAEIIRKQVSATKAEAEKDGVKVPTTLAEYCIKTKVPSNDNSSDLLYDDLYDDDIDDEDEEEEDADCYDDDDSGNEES
UniProt Q8IWV7: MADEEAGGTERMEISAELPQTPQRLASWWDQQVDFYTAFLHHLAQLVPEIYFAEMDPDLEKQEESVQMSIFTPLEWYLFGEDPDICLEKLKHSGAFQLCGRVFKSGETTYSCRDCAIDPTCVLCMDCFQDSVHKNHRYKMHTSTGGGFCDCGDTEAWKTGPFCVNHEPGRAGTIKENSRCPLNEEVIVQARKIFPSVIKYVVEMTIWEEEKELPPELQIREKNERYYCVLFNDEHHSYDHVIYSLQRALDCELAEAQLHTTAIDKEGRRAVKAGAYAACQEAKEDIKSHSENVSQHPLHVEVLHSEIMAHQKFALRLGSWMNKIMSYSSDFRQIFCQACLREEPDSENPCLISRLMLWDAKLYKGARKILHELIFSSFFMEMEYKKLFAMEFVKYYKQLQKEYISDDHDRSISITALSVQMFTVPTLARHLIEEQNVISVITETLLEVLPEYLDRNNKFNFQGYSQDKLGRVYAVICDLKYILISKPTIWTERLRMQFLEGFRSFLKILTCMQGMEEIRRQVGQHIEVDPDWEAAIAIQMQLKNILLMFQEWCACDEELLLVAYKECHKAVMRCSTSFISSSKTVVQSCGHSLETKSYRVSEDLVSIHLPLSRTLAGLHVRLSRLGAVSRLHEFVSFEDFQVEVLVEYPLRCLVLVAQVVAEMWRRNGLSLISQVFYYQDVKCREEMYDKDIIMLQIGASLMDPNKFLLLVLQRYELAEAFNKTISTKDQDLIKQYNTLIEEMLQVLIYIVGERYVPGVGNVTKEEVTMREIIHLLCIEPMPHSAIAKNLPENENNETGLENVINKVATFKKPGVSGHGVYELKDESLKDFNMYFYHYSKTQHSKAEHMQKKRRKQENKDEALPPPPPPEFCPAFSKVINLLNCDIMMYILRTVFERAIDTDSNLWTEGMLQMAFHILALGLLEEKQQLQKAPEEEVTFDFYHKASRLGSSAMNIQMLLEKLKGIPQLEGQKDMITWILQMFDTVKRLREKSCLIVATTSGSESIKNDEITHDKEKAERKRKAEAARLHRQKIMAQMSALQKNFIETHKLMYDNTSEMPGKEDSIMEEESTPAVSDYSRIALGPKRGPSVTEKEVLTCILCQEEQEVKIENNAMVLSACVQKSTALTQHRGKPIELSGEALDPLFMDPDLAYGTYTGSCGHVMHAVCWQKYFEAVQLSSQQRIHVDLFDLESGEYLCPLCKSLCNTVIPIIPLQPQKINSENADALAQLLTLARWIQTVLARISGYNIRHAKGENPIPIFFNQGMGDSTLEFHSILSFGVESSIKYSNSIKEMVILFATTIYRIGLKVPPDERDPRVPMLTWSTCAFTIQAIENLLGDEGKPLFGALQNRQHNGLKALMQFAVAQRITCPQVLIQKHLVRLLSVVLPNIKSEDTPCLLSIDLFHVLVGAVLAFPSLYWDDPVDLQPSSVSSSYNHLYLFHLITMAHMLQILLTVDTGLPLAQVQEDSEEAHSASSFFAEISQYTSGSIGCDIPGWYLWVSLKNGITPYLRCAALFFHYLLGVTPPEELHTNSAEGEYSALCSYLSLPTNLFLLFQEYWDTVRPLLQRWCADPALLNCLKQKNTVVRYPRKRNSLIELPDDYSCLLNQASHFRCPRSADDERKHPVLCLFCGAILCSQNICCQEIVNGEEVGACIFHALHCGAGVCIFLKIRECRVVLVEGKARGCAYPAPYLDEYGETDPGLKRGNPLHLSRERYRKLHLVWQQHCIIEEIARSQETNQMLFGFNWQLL

Compound: CC1Cc2ccccc2N1C(=O)C1CCCN(C1)C(=O)CCl (mixture of isomers) [TRIM25 ligand 11 (diastereomer mixture)]
Experiment: probe-labelled cysteine peptide fold change vs DMSO (competition) (log2 fold change); higher = less target engagement (more negative = stronger competition)
Details: THP-1, incubation time: 4 h
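Note: competitive chemoproteomic profiling in live THP-1 cells with an iodoacetamide desthiobiotin (IA-DTB) probe, comparing probe-labelled peptide intensities in compound-treated cells against DMSO-treated controls.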

Row | Target | probe-labelled cysteine peptide fold change (10 µM) | probe-labelled cysteine peptide fold change (50 µM)
1 | UBA7_P41226_445_QHYLLVGAGAIGCELLK (UniProt P41226) | -0.00329 | 0.0965
2 | UBL5_Q9BZL1_6_MIEVVCNDR (UniProt Q9BZL1) | -0.083 | 0.106
3 | UBE3A_Q05086_843_LPTSHTCFNVLLLPEYSSK (UniProt Q05086) | -0.0344 | -0.0828
4 | UBE3C_Q15386_252_ILLENVLKPLHFTYNSCPEGAR (UniProt Q15386) | 0.0355 | -0.385
5 | UBR2_Q8IWV8_1717_GNPLHLCK (UniProt Q8IWV8) | 0.0377 | -0.289
6 | UBN1_Q9NPG3_765_ELSCQAPLNK (UniProt Q9NPG3) | 0.0394 | -0.0866
7 | UBE2K_P61086_92_IWHPNISSVTGAICLDILK (UniProt P61086) | 0.107 | 0.238
8 | UBAP1_Q9NZ09_161_ADFNLADFECEEDPFDNLELK (UniProt Q9NZ09) | -0.087 | -0.249
9 | UBA2_Q9UBT2_129_MCLAADVPLIESGTAGYLGQVTTIK (UniProt Q9UBT2) | 0.176 | 0.0342
10 | UBAP1_Q9NZ09_243_ATLDFKPLHKPNGFITLPQLGNCEK (UniProt Q9NZ09) | -0.241 | -0.382
11 | TXNL1_O43396_135+137_AGCECLNESDEHGFDNCLR (UniProt O43396) | 0.0807 | -0.302
12 | TXNL1_O43396_135_AGCECLNESDEHGFDNCLR (UniProt O43396) | 0.221 | -0.0528
13 | U2SURP_O15042_65_ESLCDSPHQNLSRPLLENK (UniProt O15042) | -0.0929 | -0.314
14 | UBE3A_Q05086_198_AACSAAAMEEDSEASSSR (UniProt Q05086) | -0.0145 | -0.123
15 | UBE2F_Q969M7_50+52_EVAELEANLPCTCK (UniProt Q969M7) | 0.00463 | -0.237
16 | UACA_Q9BZF9_125_LLQYNCPTEHADLQGR (UniProt Q9BZF9) | -0.101 | -0.0801
17 | UBE2I_P63279_138_QILLGIQELLNEPNIQDPAQAEAYTIYCQNR (UniProt P63279) | 0.0466 | 0.171
18 | UBE2Z_Q9H832_154_CPPDYPIHPPR (UniProt Q9H832) | -0.0115 | -0.0316

Row | Target | probe-labelled cysteine peptide fold change (10 µM) | probe-labelled cysteine peptide fold change (50 µM)
19 | UBR4_Q5T4S7_2618_QLEGDCCSFITQLVNHFWK (UniProt Q5T4S7) | 0.0953 | 0.131
20 | TYMP_P19971_280+293_CVGHALEVEEALLCMDGAGPPDLR (UniProt P19971) | 0.182 | -0.198
21 | TXNRD2_Q9NNW7_500_TVGIHPTCSEEVVK (UniProt Q9NNW7) | 0.204 | 0.0447
22 | U2SURP_O15042_320_NCGFVAFMNR (UniProt O15042) | 0.16 | 0.0271
23 | UAP1_Q16222_293_TNPTEPVGVVCR (UniProt Q16222) | -0.0538 | 0.0302
24 | UBA6_A0AVT1_682_IQSGHSLEGCFQVIK | 0.146 | 0.189
25 | UBA7_P41226_145_HGVCFLAADTR (UniProt P41226) | 0.0658 | 0.179
26 | UBE2V1_Q13404_144_LPQPPEGQCYSN (UniProt Q13404) | -0.0699 | -0.213
27 | UBE2R2_Q712K3_191_VPTTLAEYCIK (UniProt Q712K3) | 0.0926 | -0.145
28 | UBR1_Q8IWV7_99_HSGAFQLCGR (UniProt Q8IWV7) | 0.0396 | 0.0213
29 | UBR5_O95071_2084_CLMEVTVDR (UniProt O95071) | -0.0492 | -0.103
30 | UAP1_Q16222_251_GIWSIHVYCVDNILVK (UniProt Q16222) | -0.469 | -0.194
31 | UBAP2_Q5T6F2_71_NQDECIVALHDCNGDVNK (UniProt Q5T6F2) | -0.147 | -0.158
32 | UBR1_Q8IWV7_1101_EVLTCILCQEEQEVK (UniProt Q8IWV7) | -0.0135 | 0.325
33 | UBA1_P22314_1039+1040_ALVLELCCNDESGEDVEVPYVR (UniProt P22314) | 0.102 | 0.0371
34 | U2AF2_P26368_464_YCDPDSYHR (UniProt P26368) | -0.00882 | 0.0989
35 | TYK2_P29597_278_VPVCHLR (UniProt P29597) | -0.0755 | -0.0104
36 | UBR4_Q5T4S7_1662_LCTFTITQK (UniProt Q5T4S7) | -0.119 | -0.0801

3 records picked at random from the list so far:
Row | Target | probe-labelled cysteine peptide fold change (10 µM) | probe-labelled cysteine peptide fold change (50 µM)
12 | TXNL1_O43396_135_AGCECLNESDEHGFDNCLR (UniProt O43396) | 0.221 | -0.0528
15 | UBE2F_Q969M7_50+52_EVAELEANLPCTCK (UniProt Q969M7) | 0.00463 | -0.237
27 | UBE2R2_Q712K3_191_VPTTLAEYCIK (UniProt Q712K3) | 0.0926 | -0.145
